Out of some 390,000 compounds screened, about 760 (0.19%) were called active. The inconclusive results got no clear call from the source; some entries with a clear call stand among them for comparison. Calls come from the whole dose curve; as a rule, active = well fitted inhibition curve with a large enough effect; inconclusive = small, poorly fitted or top-dose-only effect; inactive = flat fitted curve, though single readings scatter. Potencies of inconclusive entries are doubtful fits and often do not repeat.
Assay: qHTS for Inhibitors of Vif-A3F Interactions: qHTS; note: nearly all actives have a fitted effect of over 65% in size
Conditions: HeLa A3F-eYFP + Vif (tagged APOBEC3F with the HIV-1 protein that degrades it), YFP fluorescence increase; series mostly up to 46.1 µM
How it was run: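 Fluorescence increase (Ex 488/Em 500-530) after overnight compound treatment at 37 deg C flags inhibition of Vif-driven A3F-eYFP loss in stable HeLa A3F-eYFP/Vif cells seeded overnight beforehand.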
Potency is the fitted concentration of half-maximal effect.

| SMILES | Potency |
| --- | --- |
| CCN(CC(=O)Nc1c(F)cccc1F)C(=O)c1ccc(S(=O)(=O)N2CCCC2)cc1 | inconclusive: 2 µM [inhibitor, partial curve, poor fit] |
| CCOC(=O)c1sc(Nc2nc(C)cc(OC)n2)nc1C | inconclusive: 35.5 µM [inhibitor, single point] |
| Cc1cc(CSc2ccccc2C(=O)O)on1 | inconclusive: 5.62 µM [inhibitor, single point] |
| O=S(=O)(N=C1C=CC(=NS(=O)(=O)c2ccccc2)c2ccccc21)c1ccccc1 | inconclusive: 15.8 µM [inhibitor, partial curve, poor fit] |
| COc1ccc2c(Cl)c(C(=O)N/N=C/c3ccc4c(c3)OCO4)sc2c1 | inconclusive: 35.5 µM [inhibitor, single point] |
| CN(C)c1ccc(/C=N/N(CCO)C2=NS(=O)(=O)c3ccccc32)cc1 | active: 22.4 µM |
| COc1ccc(Cl)cc1NC(=O)CSc1nc(=O)[nH]c2c1CCC2 | inactive |
| CC(C)OC(=O)c1cc(C(=O)c2cc(Br)ccc2O)coc1=N | inconclusive: 35.5 µM [inhibitor, single point] |
| COc1ccc(C(=O)c2sc3nc(-c4ccccc4)ccc3c2N)cc1 | active: 3.55 µM |
| N#Cc1cc(C(=O)c2ccccc2O)cn(-c2nccs2)c1=O | inconclusive: 11.2 µM [inhibitor, partial curve, poor fit] |
| CN(C)c1ccc(-n2cccc2/C=C/[N+](=O)[O-])cc1 | inconclusive: 3.16 µM [inhibitor, partial curve, poor fit] |
| O/C(=C\c1nc2ccccc2nc1/C=C(\O)c1ccccc1)c1ccccc1 | inconclusive: 5.62 µM [inhibitor, single point] |
| O=C(CNCCC1=CCCCC1)Nc1ccccc1N1CCCCCC1 | inconclusive: 17.8 µM [inhibitor, single point] |
| O=C(NCc1n[nH]c(=S)n1-c1ccc(Br)cc1)c1ccc(S(=O)(=O)N2CCOCC2)cc1 | inconclusive: 35.5 µM [inhibitor, single point] |
| NC(N)=N/N=C/c1ccccc1 | inactive |
| CC(C)(C)NC(=O)C(c1ccc(-c2ccccc2)cc1)N(C[C@H]1CC[C@@H]([C@@H]2CC[C@H](CO)O2)O1)C(=O)c1ccc(-c2ccccc2)cc1 (stereo partly specified) | inactive |
| Fc1ccc(Oc2cnc3ccccc3n2)cc1 | inconclusive: 11.2 µM [inhibitor, partial curve, poor fit] |
| COc1ccccc1N=Nc1ccc(O)c2ncccc12 | inactive |
| CCN1C(=O)[C@@H]2[C@@H](c3ccc(-c4ccc(Cl)c(Cl)c4)cc3)N3CCC[C@@]3(C(=O)OC)[C@@H]2C1=O | inactive |
| COc1ccc(N=Cc2c(O)n(-c3ccc(OC)cc3)c(=O)c3ccccc23)cc1 | active: 11.2 µM |
| CS(=O)(=O)N(CC(=O)NCCc1ccccc1)c1cccc([N+](=O)[O-])c1 | inactive |
| Cn1cccc1/C=N/NC(=O)c1cc2ccccc2cc1O | inconclusive: 22.4 µM [inhibitor, single point] |

Sorted by number of heavy atoms (smallest number first): some entries from above

| SMILES | Potency |
| --- | --- |
| Fc1ccc(Oc2cnc3ccccc3n2)cc1 | inconclusive: 11.2 µM [inhibitor, partial curve, poor fit] |
| COc1ccccc1N=Nc1ccc(O)c2ncccc12 | inactive |
| COc1ccc2c(Cl)c(C(=O)N/N=C/c3ccc4c(c3)OCO4)sc2c1 | inconclusive: 35.5 µM [inhibitor, single point] |

More compounds follow:

| SMILES | Potency |
| --- | --- |
| CSc1nnc(C)c(/C=C/Nc2ccc(F)cc2F)n1 | inactive |
| N/C(=N\OC(=O)c1ccc(=O)n(Cc2ccc(Cl)cc2)c1)c1ccccn1 | inconclusive: 5.62 µM [inhibitor, single point] |
| COc1ccccc1CNS(=O)(=O)c1cc(-c2cc(C)no2)ccc1C(C)C | inactive |
| O=c1[nH]c2c(c(=O)[nH]1)CCCCCC2 | inconclusive: 35.5 µM [inhibitor, single point] |
| CC1CCc2nc(/C(C#N)=C/c3cccnc3)sc2C1 (stereo unspecified) | inconclusive: 12.6 µM [inhibitor, single point] |
| CCn1c(=O)c2sccc2n(CC(=O)NCCC2=CCCCC2)c1=O | inactive |
| CCOc1ccc(OCC)c(Nc2nc3ccc(C(=O)c4ccccc4)cc3n3cnnc23)c1 | inactive |
| COc1ccc(-c2csc(/C(C#N)=C/Nc3ccc4c(c3)OCCO4)n2)cc1 | inconclusive: 8.91 µM [inhibitor, partial curve, poor fit] |
| Cc1[nH]n(-c2ccccc2)c(=O)c1/C=N/NC(=O)c1ccccc1F | inconclusive: 5.62 µM [inhibitor, single point] |
| CCN(CC)CCN1C2=C(C(=O)CC(C)(C)C2)C(c2cccc(F)c2)C2=C1CC(C)(C)CC2=O | inconclusive: 7.94 µM [inhibitor, partial curve, poor fit] |
| Cc1ccsc1C1NC(=O)c2c(sc3c2CCN(C)C3)N1 (stereo unspecified) | inconclusive: 17.8 µM [inhibitor, single point] |
| Cc1ccccc1NS(=O)(=O)c1cc2c3c(c1)C(C)C(=O)N3CCC2 (stereo unspecified) | inconclusive: 6.31 µM [inhibitor, single point] |
| CCCOc1ccc(/C=c2\sc3nc(-c4ccco4)nn3c2=O)cc1OCC | inconclusive: 35.5 µM [inhibitor, single point] |
| N#CC1=C(N)Oc2c(ccc3ccccc23)C1c1cccs1 (stereo unspecified) | inconclusive: 25.1 µM [inhibitor, single point] |
| COc1ccc(C(CC(=O)Nc2nccs2)n2cccc2)cc1 (stereo unspecified) | inconclusive: 35.5 µM [inhibitor, partial curve, poor fit] |
| O=C(c1ccco1)N1N=C(c2ccc(Cl)cc2)CC1(O)C(F)(F)F (stereo unspecified) | inconclusive: 5.62 µM [inhibitor, single point] |
| COc1cc(NC(=O)c2ccco2)c(C(=O)OCC(=O)c2c[nH]c3ccccc23)cc1OC | inconclusive: 17.8 µM [inhibitor, partial curve, poor fit] |
| CC(/C=N/NC(=O)c1cc(-c2ccc(C)o2)[nH]n1)=C\c1ccccc1 | inconclusive: 35.5 µM [inhibitor, single point] |
| CN(CC(=O)Nc1ccc(Cl)c(C(F)(F)F)c1)C(=O)CCc1nc2ccccc2c(=O)[nH]1 | inconclusive: 12.6 µM [inhibitor, partial curve, poor fit] |
| COc1ccc(-n2c(O)c(/C=N/NS(=O)(=O)c3ccc(C)cc3)c3ccccc3c2=O)cc1OC | active: 5.01 µM |
| COc1ccc(C2Nc3ccccc3C(=O)N2Cc2ccco2)cc1COc1ccc([N+](=O)[O-])cc1 (stereo unspecified) | inactive |
| CCc1cccc2c(C(=O)CN3C(=O)NC4(CCc5ccccc54)C3=O)c[nH]c12 (stereo unspecified) | inconclusive: 35.5 µM [inhibitor, single point] |

| SMILES | Potency |
| --- | --- |
| CC[n+]1c(C=C2C=C(C)OC(C)=C2)sc2ccccc21 | inconclusive: 3.55 µM [inhibitor, full curve, poor fit] |
| COC(=O)[C@@]12CCCCN1[C@H](c1ccc(-c3ccc(F)cc3)c(OC)c1)[C@H]1C(=O)N(C)C(=O)[C@H]12 | inactive |
| Cc1ccc(CN(Cc2ccccc2)C(=S)Nc2ccccc2C)o1 | inconclusive: 35.5 µM [inhibitor, single point] |
| CCOc1ccc(NC(=O)c2c(NCc3cccs3)sc3c2CCCCC3)cc1 | inactive |
| CCN1C(=O)[C@@H]2Cc3c([nH]c4ccccc34)C(c3ccc(OC)cc3)N2C1=S (stereo partly specified) | inconclusive: 3.16 µM [inhibitor, partial curve, poor fit] |
| COc1ccc(C2C=C(c3ccccc3)Nc3nc(NC(=O)/C=C/c4ccccc4OC)nn32)cc1 (stereo unspecified) | inactive |
| Cn1ccnc1SCC(=O)Nc1cccc2ccccc12 | inactive |
| O=c1n(-c2ccccc2)c(=O)n2n1CCCC2 | inactive |
| O=C(NC(=S)N1CCN(C2CCCCC2)CC1)c1ccccc1 | active: 22.4 µM |
| COc1cc(/C=C2\SC(N)=NC2=O)ccc1OCC(=O)Nc1ccccc1C | inconclusive: 35.5 µM [inhibitor, single point] |
| COc1ccccc1NCC(=O)c1ccc(C)c(C)c1 | inconclusive: 35.5 µM [inhibitor, single point] |
| O=C(O)/C=C/C(=O)NCCC(c1ccccc1)c1ccccc1 | inconclusive: 0.562 µM [inhibitor, partial curve, poor fit] |
| Fc1ccc(/C=N/NC(=S)Nc2ccc(Cl)cc2)cc1F | inconclusive: 3.16 µM [inhibitor, single point] |
| COc1ccc(C=NNc2ccc([N+](=O)[O-])cn2)cc1 | inconclusive: 2.51 µM [inhibitor, full curve, poor fit] |
| CCCCCCc1cc2cc(-c3nnc(-c4ccc(C)cc4)o3)c(=O)oc2cc1O | inconclusive: 1.41 µM [inhibitor, partial curve, poor fit] |
| CCN(CC)CCn1c(=S)[nH]c2ccc(Br)cc2c1=O | inconclusive: 35.5 µM [inhibitor, single point] |
| CCOc1ccc(N2C(=O)CC(/C=C3/N(C)c4ccccc4C3(C)C)C2=O)cc1 (stereo unspecified) | inconclusive: 3.55 µM [inhibitor, partial curve, poor fit] |
| C=C(C)C(=O)Oc1ccc(N2C(=O)CCC2=O)cc1 | inconclusive: 35.5 µM [inhibitor, single point] |
| Cc1cc(NC(=O)COC(=O)CCCOc2ccc(Cl)cc2C)no1 | inconclusive: 22.4 µM [inhibitor, single point] |
| COc1ccc(/C(O)=C/c2nc3ccccc3n(-c3ccccc3)c2=O)cc1 | inconclusive: 35.5 µM [inhibitor, single point] |
| Cc1ccc2nc(/C(C#N)=C\c3ccc([N+](=O)[O-])o3)[nH]c2c1 | inconclusive: 2.82 µM [inhibitor, full curve, poor fit] |
| COc1cc(/C=C2\SC(=Nc3ccc(Cl)c(C(=O)O)c3)NC2=O)c(Br)c(Br)c1O | inconclusive: 4.47 µM [inhibitor, single point] |

Reference: PubChem BioAssay AID602313 (National Center for Advancing Translational Sciences (NCATS), 2012)
